# Among all 360,000 compounds or so, about 7,500 (2.1%) were called active. The shares of active, inactive and inconclusive entries below differ from those in the screen. Calls come from the whole dose curve; as a rule, active = well fitted inhibition curve with a large enough effect; inconclusive = small, poorly fitted or top-dose-only effect, or effect the other way; inactive = flat fitted curve, though single readings scatter. Where the call is inconclusive, the potency comes from a doubtful curve fit.
# Assay: Nrf2 qHTS screen for inhibitors; note: nearly all actives have a fitted effect of over 60% in size
# Conditions: A549 ARE-Fluc reporter, luciferase luminescence, 18-24 h; series mostly up to 46 µM
# How it was run: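 Concentration-response testing used A549 ARE_Fluc cells at 5000 cells/well. Following an 18-24 h compound incubation, viability was read by fluorescence (Ex 405/Em 525) and luciferase output by luminescence.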
# Potency is the fitted concentration of half-maximal effect.
row,Compound,Potency
1,CC(C)CCC(O)(c1ccccc1)C(CN1CCOCC1)c1ccccc1 (stereo not drawn),"inconclusive: 32.6 µM [falling, single point]"
2,C=CCNc1nc(N)c([N+](=O)[O-])c(Nc2ccccc2OC)n1,active: 20.6 µM
3,N#Cc1ccc(C(=O)NC2CCCc3ccccc32)cc1 (stereo not drawn),"inconclusive: 14.6 µM [activator, partial curve, poor fit]"
4,O=C(CNc1cccc2ccccc12)N/N=C/c1cccc(Oc2ccccc2)c1,"inconclusive: 20.6 µM [falling, partial curve, poor fit]"
5,CCn1nnnc1NCc1ccc(SC)cc1,"inconclusive: 0.0116 µM [falling, full curve, poor fit]"
6,COCCNC(=O)CS(=O)(=O)Cc1nc(-c2ccc(C)cc2)oc1C,"inconclusive: 6.51 µM [falling, single point]"
7,Cc1ccc(S(=O)(=O)Cc2ccc(C(=O)N3CCN(c4cccc(C)c4C)CC3)o2)cc1,"inconclusive: 23.1 µM [falling, single point]"
8,COc1ccccc1C1=CC(=O)CC(C)(C)C1=O,inactive
9,COc1ccc(C(=O)OCc2cc(=O)n3nc(-c4cccs4)sc3n2)cc1,inactive
10,O=C(O)C1Cc2ccccc2CN1C(=O)CCl (stereo not drawn),"inconclusive: 4.61 µM [activator, partial curve, poor fit]"
11,CCOC(=O)c1c(NC(=O)CSc2c[nH]c3ccccc23)sc2c1CCC2,"inconclusive: 29.1 µM [falling, single point]"
12,O=c1c2ccccc2oc2ncccc12,"inconclusive: 13 µM [activator, partial curve, poor fit]"
13,CC(=O)c1cccc(NC(=O)/C=C/c2ccc([N+](=O)[O-])s2)c1,"inconclusive: 1.46 µM [falling, partial curve]"
14,CC(C)c1nc2oc3c(=O)[nH]cnc3c2c2c1COC(C)(C)C2,inactive
15,c1ccc(CNCCCNCCCCNCCCNCc2ccccc2)cc1,"inconclusive: 18.4 µM [falling, partial curve, poor fit]"
16,COc1ccc(C(=O)Nc2c(N)nc(SCC(=O)Nc3ccc(C(C)=O)cc3)[nH]c2=O)cc1,"inconclusive: 0.58 µM [falling, full curve, poor fit]"
17,COc1ccc(OC)c(C2=Nn3c(nnc3-c3ccco3)SC2)c1,"inconclusive: 32.6 µM [falling, partial curve, poor fit]"
18,Cc1ccc(C2(C)NC(=O)N(CC(=O)Nc3nc(-c4ccccn4)cs3)C2=O)cc1 (stereo not drawn),"inconclusive: 1.64 µM [falling, partial curve, poor fit]"
19,CCCNC(=O)C1CC(=O)N(c2ccc(OCc3ccc(F)cc3)cc2)C1 (stereo not drawn),"inconclusive: 0.92 µM [activator, full curve]"
20,Cc1ccc(NC(=O)C2CCCN(c3nnc(C)c4c(C)n(-c5ccccc5)nc34)C2)c(Cl)c1 (stereo not drawn),"inconclusive: 9.2 µM [activator, partial curve]"
21,CN(C)P(=NC(=O)COc1ccc(Cl)cc1Cl)(N(C)C)N(C)C,"inconclusive: 29.1 µM [falling, single point]"

row,Compound,Potency
1,CCCSc1nc2sc3c(c2c(=O)n1-c1ccc(OC)cc1)CCN(C)C3,"inconclusive: 16.4 µM [falling, single point]"
2,COc1ccc(S(=O)(=O)N2CCN(C(=O)CCCN3C(=O)NC4(CCCC4)C3=O)CC2)cc1,inactive
3,Cc1c(NCc2nc3ccccc3[nH]2)c(=O)n(-c2ccccc2)n1C,"inconclusive: 29.1 µM [activator, single point]"
4,CN(c1ccc(C(=O)NCCSCc2ccccc2)cc1)S(=O)(=O)c1ccccc1,"inconclusive: 23.1 µM [falling, partial curve, poor fit]"
5,O=C(O)c1ccc(/C=C2/SC(=S)N(Cc3ccccc3)C2=O)cc1,inactive
6,Cn1c(/C=C/c2ccc(Cl)cc2)nc2ccccc2c1=O,"inconclusive: 11.6 µM [activator, partial curve]"
7,O=C(CSc1ncnc2c1oc1ccccc12)Nc1ccc2c(c1)OCCO2,"inconclusive: 29.1 µM [falling, single point]"
8,Fc1ccccc1N1CCN(c2cnc3ccccc3n2)CC1,"inconclusive: 2.31 µM [activator, full curve]"
9,COc1cccc(-c2nnc3sc(C4CCCCC4)nn23)c1,"inconclusive: 25.9 µM [falling, partial curve, poor fit]"
10,CC(C)c1nnc(NC(=O)C2CCCN(C(=O)Nc3ccc(F)cc3)C2)s1 (stereo not drawn),"inconclusive: 32.6 µM [falling, partial curve, poor fit]"
11,Cc1ccc(C(=O)Nc2ccc3c(c2)OCCO3)c(C)c1,"inconclusive: 10.3 µM [falling, partial curve, poor fit]"
12,CCC1(C)COC(c2ccc3c(c2)OCO3)OC1 (stereo not drawn),"inconclusive: 5.8 µM [falling, single point]"
13,Cn1c(SCC(=O)N/N=C/c2ccc([N+](=O)[O-])s2)nnc1-c1ccc(Cl)cc1,"inconclusive: 20.6 µM [falling, partial curve, poor fit]"
14,COc1cc(-c2noc(-c3ccc(N4CCN(C)CC4)c([N+](=O)[O-])c3)n2)cc(OC)c1OC,"inconclusive: 5.8 µM [activator, full curve, poor fit]"
15,Cc1cc(C)n(-c2cc(N3CCN(C(=O)c4ccc(C(C)(C)C)cc4)CC3)ccc2[N+](=O)[O-])n1,"inconclusive: 29.1 µM [falling, single point]"
16,O=C(Nc1ccncc1)c1ccc(-c2ccccc2)cc1,active: 2.31 µM
17,COCCn1c(=O)[nH]c2cc(C(=O)NCc3ccccc3Cl)ccc2c1=O,"inconclusive: 11.6 µM [activator, partial curve]"
18,Cc1ccc(C(=O)Nc2ccc(N3CCCCC3)cc2)cc1,"inconclusive: 0.326 µM [activator, full curve]"
19,O=C(NCc1cccs1)c1noc2c1CCCCC2,"inconclusive: 6.51 µM [activator, single point]"
20,CCOc1ccc(NC(=O)CSc2nc(-c3ccc(OC)cc3)nc3c2Cc2c(CO)cnc(C)c2O3)cc1,"inconclusive: 32.6 µM [activator, single point]"
21,Cc1ccnc(NC(=O)Nc2cccc(F)c2)n1,"inconclusive: 5.8 µM [activator, full curve]"

# Quoted from the listing.
# Potency with Cn1c(/C=C/c2ccc(Cl)cc2)nc2ccccc2c1=O reads inconclusive: 11.6 µM [activator, partial curve]
# Potency with CCCSc1nc2sc3c(c2c(=O)n1-c1ccc(OC)cc1)CCN(C)C3 reads inconclusive: 16.4 µM [falling, single point]
# Potency with O=C(CSc1ncnc2c1oc1ccccc12)Nc1ccc2c(c1)OCCO2 reads inconclusive: 29.1 µM [falling, single point]

# Further compounds.

row,Compound,Potency
1,COc1ccc(-c2coc3cc4oc(=O)cc(-c5ccccc5)c4cc23)cc1F,"inconclusive: 29.1 µM [falling, single point]"
2,CCOc1cc(C)c(S(=O)(=O)N2CCCCC2)cc1C,"inconclusive: 2.31 µM [falling, full curve, poor fit]"
3,COc1ccc(C(C(=O)NCC2CCCO2)N(C(=O)c2snc(C(N)=O)c2N)c2ccccc2C)cc1OC (stereo not drawn),"inconclusive: 16.4 µM [falling, partial curve]"
4,COc1ccccc1-c1cc(C(F)(F)F)nc(S(=O)(=O)CCCC(=O)N2CCOCC2)n1,"inconclusive: 13 µM [falling, single point]"
5,Cn1c(O)c(N=NC(=O)Cc2c[nH]c3ccccc23)c2ccccc21,inactive
6,CCOc1ccc(/C=N/OCC(=O)NCc2ccc3c(c2)OCO3)cc1OC,"inconclusive: 25.9 µM [falling, partial curve, poor fit]"
7,COc1ccc(NC(=O)CN(C)C(=O)c2cc(CN3C(=O)c4ccccc4C3=O)ccc2OC)cc1,"inconclusive: 18.4 µM [activator, partial curve, poor fit]"
8,Cc1ccc(-n2ncc3c(=O)n(CC#N)cnc32)cc1C,"inconclusive: 16.4 µM [activator, partial curve, poor fit]"
9,Cc1cc(Nc2ccc(C)c(Cl)c2)n2nc(Cc3ccccc3)nc2n1,"inconclusive: 16.4 µM [falling, single point]"
10,O=c1[nH]c2ccccc2cc1CN(Cc1ccco1)S(=O)(=O)c1ccccc1,"inconclusive: 29.1 µM [falling, single point]"
11,CC(=O)O/N=C/c1c(C)c(C=O)n2ccccc12,"inconclusive: 32.6 µM [falling, partial curve, poor fit]"
12,COc1ccc(S(=O)(=O)Nc2ccc(Cl)cn2)c(C)c1C,"inconclusive: 29.1 µM [falling, single point]"
13,COc1cc(C(C)=O)ccc1OCC(=O)Nc1ccc(C)c(S(=O)(=O)N2CCCCCC2)c1,"inconclusive: 20.6 µM [falling, single point]"
14,Cc1csc(NC(=O)c2cc3c(s2)CCCC3)n1,"inconclusive: 0.82 µM [activator, partial curve]"
15,Cc1ccccc1C(=O)NC(=S)Nc1ccc(N2CCN(C(=O)c3ccccc3)CC2)cc1,"inconclusive: 9.2 µM [falling, partial curve]"
16,CCOC(=O)N1CCN(C(=O)c2ccc(-n3c(=S)[nH]c4ccccc4c3=O)cc2)CC1,"inconclusive: 23.1 µM [falling, single point]"
17,CCOC(=O)N1CCC(NC(=O)CS(=O)(=O)Cc2nc(-c3ccc(C)cc3)oc2C)CC1,"inconclusive: 16.4 µM [falling, single point]"
18,COc1n[nH]c(C(=O)Nc2cc(F)ccc2C)c1[N+](=O)[O-],inactive
19,Cc1ccc2ccccc2c1CSc1nc(N)nc2c1ncn2CC(C)C,"inconclusive: 29.1 µM [falling, single point]"
20,Cc1ccc(C(=O)/C=C2\NCC(C)NC2=O)cc1 (stereo not drawn),"inconclusive: 32.6 µM [falling, single point]"
21,COc1ccc(OC)c(S(=O)(=O)N2CCCC(N3CCN(c4ccccc4)CC3)C2)c1 (stereo not drawn),"inconclusive: 20.6 µM [falling, partial curve]"

# From PubChem BioAssay AID504444 (National Center for Advancing Translational Sciences (NCATS), 2011)
